# The other results are listed elsewhere or left out. Many values rest on one well or one pass, so single values are uncertain.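 Cells were imaged in 1,536-well plates, and nuclei stained with an antibody against cleaved PARP were counted against all DNA-stained nuclei to give the apoptosis fraction. Screening doses were chosen to leave most cells alive, and resting and induced cleaved-PARP levels differ strongly between cell lines.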
# How the values were obtained:
# Experiment in all cases: cleaved PARP positive nuclei fraction relative to DMSO control; melanoma cells; higher = more apoptosis
# Conditions in all cases: library dose: low library concentration; 72 h
# 501Mel = test system: 501Mel
# A101D = test system: A101D
# A2058 = test system: A2058
# A375 = test system: A375
# C32 = test system: C32
# CBRC008 = test system: CBRC008 (line from a melanoma biopsy)
# CBRC014 = test system: CBRC014 (line from a melanoma biopsy)
# CBRC016 = test system: CBRC016 (line from a melanoma biopsy)
# CBRC017 = test system: CBRC017 (line from a melanoma biopsy)
# CBRC034 = test system: CBRC034 (line from a melanoma biopsy)
# COLO792 = test system: COLO792
# COLO800 = test system: COLO800
# COLO829 = test system: COLO829
# G361 = test system: G361
# IPC-298 = test system: IPC-298
# IST-MEL1 = test system: IST-MEL1
# LB2518-MEL = test system: LB2518-MEL
# LOXIMVI = test system: LOXIMVI
# MEL-HO = test system: MEL-HO
# CBRC013 = test system: CBRC013 (line from a melanoma biopsy)
Compound,cleaved PARP positive nuclei fraction (501Mel),cleaved PARP positive nuclei fraction (A101D),cleaved PARP positive nuclei fraction (A2058),cleaved PARP positive nuclei fraction (A375),cleaved PARP positive nuclei fraction (C32),cleaved PARP positive nuclei fraction (CBRC008),cleaved PARP positive nuclei fraction (CBRC014),cleaved PARP positive nuclei fraction (CBRC016),cleaved PARP positive nuclei fraction (CBRC017),cleaved PARP positive nuclei fraction (CBRC034),cleaved PARP positive nuclei fraction (COLO792),cleaved PARP positive nuclei fraction (COLO800),cleaved PARP positive nuclei fraction (COLO829),cleaved PARP positive nuclei fraction (G361),cleaved PARP positive nuclei fraction (IPC-298),cleaved PARP positive nuclei fraction (IST-MEL1),cleaved PARP positive nuclei fraction (LB2518-MEL),cleaved PARP positive nuclei fraction (LOXIMVI),cleaved PARP positive nuclei fraction (MEL-HO),cleaved PARP positive nuclei fraction (CBRC013)
"Nc1ncn([C@H]2C[C@H](O)[C@@H](CO)O2)c(=O)n1 [decitabine] + C=CCNC1=C2C[C@@H](C)C[C@H](OC)[C@H](O)[C@@H](C)/C=C(\C)[C@H](OC(N)=O)[C@@H](OC)/C=C\C=C(/C)C(=O)NC(=CC1=O)C2=O [Tanespimycin] (first compound 0.1 µM, partner dose 0.002 µM)",107%,64.3%,44.9%,208%,88.2%,90.6%,97.4%,370%,149%,140%,128%,180%,135%,104%,141%,77.1%,95.7%,36.4%,82.2%,–
"Cn1c(=O)n(-c2ccc(C(C)(C)C#N)cc2)c2c3cc(-c4cnc5ccccc5c4)ccc3ncc21 + Nc1ccn([C@@H]2O[C@H](CO)[C@@H](O)C2(F)F)c(=O)n1 [gemcitabine] (first compound 0.004 µM, partner dose 0.0004 µM)",106%,102%,113%,47.9%,70.3%,63.7%,160%,146%,132%,112%,149%,69.2%,99.1%,78.9%,30.5%,91.2%,90.8%,66.3%,143%,–
"O=C(O)c1ccc2c(c1)nc(Nc1cccc(Cl)c1)c1ccncc12 + COc1cc(Nc2ncc(F)c(Nc3ccc4c(n3)NC(=O)C(C)(C)O4)n2)cc(OC)c1OC [Tamatinib] (first compound 0.4 µM, partner dose 0.4 µM)",91.8%,20.3%,106%,173%,175%,122%,111%,86.4%,113%,–,302%,300%,80.6%,154%,115%,163%,219%,205%,84.5%,107%
"Cc1cc(Nc2cc(N3CCN(C)CC3)nc(/C=C/c3ccccc3)n2)n[nH]1 + Nc1nc(F)nc2c1ncn2[C@@H]1O[C@H](CO)[C@@H](O)[C@@H]1O [fludarabine] (first compound 0.04 µM, partner dose 0.2 µM)",16600%,44%,55.5%,5330%,74.1%,172%,107%,563%,101%,113%,165%,98.2%,107%,227%,28%,67.3%,48.5%,64.2%,180%,–
"O=C(O)c1ccc2c(c1)nc(Nc1cccc(Cl)c1)c1ccncc12 + Cn1nnc2c(C(N)=O)ncn2c1=O [temozolomide] (first compound 0.4 µM, partner dose 2 µM)",79.9%,45.9%,154%,120%,70.4%,77.4%,157%,220%,140%,201%,181%,131%,125%,157%,46.6%,234%,24.8%,430%,151%,–
"O=C(O)c1ccc2c(c1)nc(Nc1cccc(Cl)c1)c1ccncc12 + CCCS(=O)(=O)Nc1ccc(F)c(C(=O)c2c[nH]c3ncc(Cl)cc23)c1F [PLX4720] (first compound 0.4 µM, partner dose 0.08 µM)",86.2%,106%,123%,190%,399%,113%,114%,216%,158%,76%,94.8%,95.8%,105%,129%,134%,191%,45.2%,42%,208%,–
"CNC(=O)c1cc(Oc2ccc(NC(=O)Nc3ccc(Cl)c(C(F)(F)F)c3)cc2)ccn1 [sorafenib] + C=C(c1ccc(C(=O)O)cc1)c1cc2c(cc1C)C(C)(C)CCC2(C)C [Bexarotene] (first compound 0.4 µM, partner dose 2 µM)",108%,338%,61.2%,36.3%,152%,236%,110%,154%,199%,64.7%,245%,97.3%,16.7%,88%,42.3%,166%,88.8%,49.9%,106%,–
"C[C@@H](Oc1cc(-c2cnn(C3CCNCC3)c2)cnc1N)c1c(Cl)ccc(F)c1Cl [Crizotinib] + OCc1c[nH]c2ccccc12 [Indole-3-carbinol] (first compound 0.2 µM, partner dose 0.8 µM)",94.8%,129%,81.2%,77%,120%,52.7%,80%,68.2%,106%,60%,66%,45.9%,70.9%,83.7%,58.7%,33.8%,55.1%,106%,98.1%,–
"CC(C)C[C@H](NC(=O)[C@H](Cc1ccccc1)NC(=O)c1cnccn1)B(O)O [Bortezomib] + C[C@@H]1CCN(C(=O)CC#N)C[C@@H]1N(C)c1ncnc2[nH]ccc12 [CP690550] (first compound 0.001 µM, partner dose 1 µM)",439%,251%,192%,90.3%,89.4%,598%,214%,394%,111%,–,110%,165%,234%,1110%,110%,57.5%,180%,44.1%,239%,61.7%
"CCCS(=O)(=O)Nc1ccc(F)c(C(=O)c2c[nH]c3ncc(Cl)cc23)c1F + C=CCNC1=C2C[C@@H](C)C[C@H](OC)[C@H](O)[C@@H](C)/C=C(\C)[C@H](OC(N)=O)[C@@H](OC)/C=C\C=C(/C)C(=O)NC(=CC1=O)C2=O [Tanespimycin] (first compound 0.08 µM, partner dose 0.002 µM)",464%,103%,86.5%,85.9%,264%,91.1%,124%,96.4%,85.4%,27.7%,78.1%,221%,101%,124%,115%,266%,201%,50.5%,193%,–
"CN1CCN(c2ccc3nc(-c4c(N)c5c(F)cccc5[nH]c4=O)[nH]c3c2)CC1 [Dovitinib] + Clc1ccc(Nc2nnc(Cc3ccncc3)c3ccccc23)cc1 [vatalanib] (first compound 0.1 µM, partner dose 2 µM)",106%,208%,110%,173%,251%,156%,109%,98.7%,115%,37.5%,109%,125%,107%,221%,246%,218%,113%,65.7%,101%,–
"Nc1nc(F)nc2c1ncn2[C@@H]1O[C@H](CO)[C@@H](O)[C@@H]1O [fludarabine] + NCC(=O)Nc1ccc(-n2nc(C(F)(F)F)cc2-c2ccc3c(ccc4ccccc43)c2)cc1 [OSU03012] (first compound 0.2 µM, partner dose 1 µM)",1800%,22.1%,133%,15400%,150%,96.2%,86.2%,236%,99.5%,–,86.3%,108%,79.2%,32.1%,27.4%,222%,106%,78.1%,32.4%,319%
"Nc1ccn([C@@H]2O[C@H](CO)[C@@H](O)C2(F)F)c(=O)n1 [gemcitabine] + CO[C@@H]1[C@H](N(C)C(=O)c2ccccc2)C[C@H]2O[C@]1(C)n1c3ccccc3c3c4c(c5c6ccccc6n2c5c31)C(=O)NC4 [Midostaurin] (first compound 0.0004 µM, partner dose 0.08 µM)",74%,83.8%,83.8%,55.2%,35.4%,42.4%,125%,484%,116%,–,93.4%,71.2%,123%,143%,26.5%,90.9%,291%,77%,32.8%,126%
"Cc1cc(Nc2cc(N3CCN(C)CC3)nc(/C=C/c3ccccc3)n2)n[nH]1 + CC(=O)c1c(C)c2cnc(Nc3ccc(N4CCNCC4)cn3)nc2n(C2CCCC2)c1=O [palbociclib] (first compound 0.04 µM, partner dose 0.04 µM)",95.8%,111%,89.1%,218%,85.2%,59.5%,133%,65.3%,95.2%,55.5%,84.3%,141%,42.8%,93.7%,98.4%,70.5%,69.8%,211%,38.1%,–
"CS(=O)(=O)CCNCc1ccc(-c2ccc3ncnc(Nc4ccc(OCc5cccc(F)c5)c(Cl)c4)c3c2)o1 [lapatinib] + CCCS(=O)(=O)Nc1ccc(F)c(C(=O)c2c[nH]c3ncc(Cl)cc23)c1F [PLX4720] (first compound 0.8 µM, partner dose 0.08 µM)",87.6%,51.3%,92.7%,160%,141%,228%,127%,49.8%,104%,53.4%,148%,116%,65.6%,154%,46.5%,180%,82.1%,115%,61.4%,–
"Cc1cc(Nc2cc(N3CCN(C)CC3)nc(/C=C/c3ccccc3)n2)n[nH]1 + CN(C)S(=O)(=O)c1ccc2c(c1)/C(=C/c1cc3c([nH]1)CCCC3)C(=O)N2 [SU6656] (first compound 0.04 µM, partner dose 0.4 µM)",91%,25%,172%,179%,103%,49.6%,109%,108%,110%,–,126%,103%,133%,152%,67.5%,50.3%,202%,113%,117%,120%

# Two entries picked at random from those above:
Compound,cleaved PARP positive nuclei fraction (501Mel),cleaved PARP positive nuclei fraction (A101D),cleaved PARP positive nuclei fraction (A2058),cleaved PARP positive nuclei fraction (A375),cleaved PARP positive nuclei fraction (C32),cleaved PARP positive nuclei fraction (CBRC008),cleaved PARP positive nuclei fraction (CBRC014),cleaved PARP positive nuclei fraction (CBRC016),cleaved PARP positive nuclei fraction (CBRC017),cleaved PARP positive nuclei fraction (CBRC034),cleaved PARP positive nuclei fraction (COLO792),cleaved PARP positive nuclei fraction (COLO800),cleaved PARP positive nuclei fraction (COLO829),cleaved PARP positive nuclei fraction (G361),cleaved PARP positive nuclei fraction (IPC-298),cleaved PARP positive nuclei fraction (IST-MEL1),cleaved PARP positive nuclei fraction (LB2518-MEL),cleaved PARP positive nuclei fraction (LOXIMVI),cleaved PARP positive nuclei fraction (MEL-HO),cleaved PARP positive nuclei fraction (CBRC013)
"O=C(O)c1ccc2c(c1)nc(Nc1cccc(Cl)c1)c1ccncc12 + Cn1nnc2c(C(N)=O)ncn2c1=O [temozolomide] (first compound 0.4 µM, partner dose 2 µM)",79.9%,45.9%,154%,120%,70.4%,77.4%,157%,220%,140%,201%,181%,131%,125%,157%,46.6%,234%,24.8%,430%,151%,–
"CN1CCN(c2ccc3nc(-c4c(N)c5c(F)cccc5[nH]c4=O)[nH]c3c2)CC1 [Dovitinib] + Clc1ccc(Nc2nnc(Cc3ccncc3)c3ccccc23)cc1 [vatalanib] (first compound 0.1 µM, partner dose 2 µM)",106%,208%,110%,173%,251%,156%,109%,98.7%,115%,37.5%,109%,125%,107%,221%,246%,218%,113%,65.7%,101%,–
